Consider two molecules from article PMC12147174, “PEX1^G843D remains functional in peroxisome biogenesis but is rapidly degraded by the proteasome” (The Journal of Biological Chemistry, 2025).

Like-named read-outs stand apart in the source and are kept apart here. No constants are given. Whether binding was seen depends on the method and setting. In cells and extracts the contact can be indirect. These calls come from enrichment with a bait or labelling near it, and not all partners need be listed. Sequences can lack the tags named with a protein.

Common to all, as to experiment: affinity purification with mass spectrometry; anti-FLAG M2 agarose eluates from HCT116 lysate (LB1 with ATPγS), TCA precipitated, trypsin, LC-MS/MS; total precursor intensity normalized to PEX1
The target in experiment [1] is T1, FLAG-PEX1^WT (human PEX1, N-terminal FLAG knock-in) (human (endogenous in HCT116)) (UniProt O43933).
T1 sequence: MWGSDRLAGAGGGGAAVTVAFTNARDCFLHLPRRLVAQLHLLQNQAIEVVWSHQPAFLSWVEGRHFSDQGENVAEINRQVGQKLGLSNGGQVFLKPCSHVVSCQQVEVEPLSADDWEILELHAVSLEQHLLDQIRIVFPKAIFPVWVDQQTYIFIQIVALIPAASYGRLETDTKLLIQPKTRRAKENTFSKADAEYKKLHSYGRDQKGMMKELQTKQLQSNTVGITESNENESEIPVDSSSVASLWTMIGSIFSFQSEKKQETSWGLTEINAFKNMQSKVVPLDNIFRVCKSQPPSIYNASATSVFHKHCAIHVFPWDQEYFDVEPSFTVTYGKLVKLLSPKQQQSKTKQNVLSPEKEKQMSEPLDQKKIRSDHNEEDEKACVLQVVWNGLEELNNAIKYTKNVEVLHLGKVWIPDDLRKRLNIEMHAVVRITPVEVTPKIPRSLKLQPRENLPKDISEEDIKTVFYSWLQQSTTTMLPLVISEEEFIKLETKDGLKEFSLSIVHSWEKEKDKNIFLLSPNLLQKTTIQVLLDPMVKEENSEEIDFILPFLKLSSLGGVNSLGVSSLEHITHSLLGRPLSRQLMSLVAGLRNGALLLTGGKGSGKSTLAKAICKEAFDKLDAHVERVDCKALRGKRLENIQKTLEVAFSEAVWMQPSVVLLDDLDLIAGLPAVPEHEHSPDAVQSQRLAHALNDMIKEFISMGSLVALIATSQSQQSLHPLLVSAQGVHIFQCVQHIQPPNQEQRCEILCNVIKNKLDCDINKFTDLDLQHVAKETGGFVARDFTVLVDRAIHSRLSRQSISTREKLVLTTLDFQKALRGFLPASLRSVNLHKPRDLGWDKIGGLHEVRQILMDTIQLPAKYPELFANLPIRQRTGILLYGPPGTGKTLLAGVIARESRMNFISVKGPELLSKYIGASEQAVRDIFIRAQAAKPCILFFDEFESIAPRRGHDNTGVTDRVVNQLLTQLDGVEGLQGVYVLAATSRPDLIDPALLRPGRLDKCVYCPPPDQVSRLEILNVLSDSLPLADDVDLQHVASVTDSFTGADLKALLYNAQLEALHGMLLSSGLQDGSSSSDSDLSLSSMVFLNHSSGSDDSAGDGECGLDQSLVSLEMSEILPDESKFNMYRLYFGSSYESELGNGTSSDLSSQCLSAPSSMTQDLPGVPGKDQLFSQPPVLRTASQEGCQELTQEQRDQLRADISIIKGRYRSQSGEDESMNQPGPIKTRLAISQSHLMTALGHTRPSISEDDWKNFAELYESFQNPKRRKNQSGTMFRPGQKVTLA

The target in experiment [2] is T2, PEX1^G843D-FLAG (human PEX1 G843D, C-terminal FLAG knock-in) (human (endogenous in HCT116)) (UniProt O43933).
T2 sequence: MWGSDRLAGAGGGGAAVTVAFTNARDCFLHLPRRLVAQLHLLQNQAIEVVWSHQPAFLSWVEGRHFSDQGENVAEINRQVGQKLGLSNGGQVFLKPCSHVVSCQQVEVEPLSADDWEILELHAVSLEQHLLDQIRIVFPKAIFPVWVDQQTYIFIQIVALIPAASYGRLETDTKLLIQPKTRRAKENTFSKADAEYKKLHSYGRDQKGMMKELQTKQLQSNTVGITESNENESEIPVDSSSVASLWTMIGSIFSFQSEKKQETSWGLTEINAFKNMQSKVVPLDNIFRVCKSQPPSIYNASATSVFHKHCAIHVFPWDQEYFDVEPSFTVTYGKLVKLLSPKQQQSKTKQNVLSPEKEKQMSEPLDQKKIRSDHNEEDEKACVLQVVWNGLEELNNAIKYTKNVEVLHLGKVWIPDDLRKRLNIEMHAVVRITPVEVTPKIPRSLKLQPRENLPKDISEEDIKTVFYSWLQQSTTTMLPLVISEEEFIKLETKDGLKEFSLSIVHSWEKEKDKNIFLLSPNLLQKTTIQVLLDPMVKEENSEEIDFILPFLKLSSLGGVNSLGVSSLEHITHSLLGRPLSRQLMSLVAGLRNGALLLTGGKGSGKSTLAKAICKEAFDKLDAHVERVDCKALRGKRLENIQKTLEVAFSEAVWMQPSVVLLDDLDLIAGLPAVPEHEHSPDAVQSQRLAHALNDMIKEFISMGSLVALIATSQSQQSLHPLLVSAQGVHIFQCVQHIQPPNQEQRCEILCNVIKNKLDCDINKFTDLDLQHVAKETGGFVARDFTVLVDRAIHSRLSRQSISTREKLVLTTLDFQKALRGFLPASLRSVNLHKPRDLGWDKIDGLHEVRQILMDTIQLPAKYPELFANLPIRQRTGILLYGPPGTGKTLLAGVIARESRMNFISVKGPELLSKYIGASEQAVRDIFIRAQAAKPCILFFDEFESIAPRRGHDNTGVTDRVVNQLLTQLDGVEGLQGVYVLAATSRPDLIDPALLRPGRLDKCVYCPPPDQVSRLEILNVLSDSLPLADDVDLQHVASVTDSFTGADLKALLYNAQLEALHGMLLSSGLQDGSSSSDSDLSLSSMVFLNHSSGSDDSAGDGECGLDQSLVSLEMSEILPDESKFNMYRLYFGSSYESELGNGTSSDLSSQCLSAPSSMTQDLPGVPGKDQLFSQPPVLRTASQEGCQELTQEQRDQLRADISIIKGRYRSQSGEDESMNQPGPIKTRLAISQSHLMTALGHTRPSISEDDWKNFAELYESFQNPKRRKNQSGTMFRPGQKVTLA

Experiment [3] addresses T3, PEX1^WT-FLAG (human PEX1, C-terminal FLAG knock-in) (human (endogenous in HCT116)) (UniProt O43933).
T3 sequence: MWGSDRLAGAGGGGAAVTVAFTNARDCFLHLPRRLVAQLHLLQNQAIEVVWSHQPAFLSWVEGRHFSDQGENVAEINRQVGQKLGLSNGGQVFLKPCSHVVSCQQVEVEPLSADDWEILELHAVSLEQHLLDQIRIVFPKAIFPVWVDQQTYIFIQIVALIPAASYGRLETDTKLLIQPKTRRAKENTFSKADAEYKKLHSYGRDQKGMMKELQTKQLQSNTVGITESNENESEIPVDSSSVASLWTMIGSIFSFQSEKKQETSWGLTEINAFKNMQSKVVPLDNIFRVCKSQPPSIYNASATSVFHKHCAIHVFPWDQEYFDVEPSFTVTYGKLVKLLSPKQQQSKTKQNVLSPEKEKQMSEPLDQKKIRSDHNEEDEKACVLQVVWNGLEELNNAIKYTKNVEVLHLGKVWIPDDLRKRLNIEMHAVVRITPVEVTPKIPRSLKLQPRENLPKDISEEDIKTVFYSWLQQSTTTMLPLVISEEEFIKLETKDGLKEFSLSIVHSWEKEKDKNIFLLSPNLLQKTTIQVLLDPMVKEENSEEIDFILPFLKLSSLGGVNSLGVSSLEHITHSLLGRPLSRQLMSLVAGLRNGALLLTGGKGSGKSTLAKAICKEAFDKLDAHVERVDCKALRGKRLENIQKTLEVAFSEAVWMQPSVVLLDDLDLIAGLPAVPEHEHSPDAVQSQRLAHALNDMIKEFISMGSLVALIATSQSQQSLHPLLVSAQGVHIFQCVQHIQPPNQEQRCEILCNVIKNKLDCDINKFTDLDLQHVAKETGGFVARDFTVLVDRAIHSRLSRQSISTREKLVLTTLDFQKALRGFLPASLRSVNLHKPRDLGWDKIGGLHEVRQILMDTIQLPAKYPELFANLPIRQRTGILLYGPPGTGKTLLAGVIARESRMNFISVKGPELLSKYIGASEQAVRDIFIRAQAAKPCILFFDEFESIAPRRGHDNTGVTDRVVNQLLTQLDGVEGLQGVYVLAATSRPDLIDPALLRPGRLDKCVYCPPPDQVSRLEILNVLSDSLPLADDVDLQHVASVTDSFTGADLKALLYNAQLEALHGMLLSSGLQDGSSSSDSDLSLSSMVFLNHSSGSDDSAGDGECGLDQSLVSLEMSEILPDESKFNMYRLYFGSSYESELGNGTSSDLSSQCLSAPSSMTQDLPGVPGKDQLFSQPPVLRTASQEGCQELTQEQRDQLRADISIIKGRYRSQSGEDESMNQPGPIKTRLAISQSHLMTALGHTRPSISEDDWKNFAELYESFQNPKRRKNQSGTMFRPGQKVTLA

For experiment [4], the target named is T1, FLAG-PEX1^WT (human PEX1, N-terminal FLAG knock-in) (human (endogenous in HCT116)). This is another data set of the same source.

In the case of “p97 (human) (from UniProt P55072 1-806) (enzyme)”, the binding entry in experiment [1] is reported as “binds”.

B1: PEX6 (human) (protein, UniProt Q13608 1-980)
chain: MALAVLRVLEPFPTETPPLAVLLPPGGPWPAAELGLVLALRPAGESPAGPALLVAALEGPDAGTEEQGPGPPQLLVSRALLRLLALGSGAWVRARAVRRPPALGWALLGTSLGPGLGPRVGPLLVRRGETLPVPGPRVLETRPALQGLLGPGTRLAVTELRGRARLCPESGDSSRPPPPPVVSSFAVSGTVRRLQGVLGGTGDSLGVSRSCLRGLGLFQGEWVWVAQARESSNTSQPHLARVQVLEPRWDLSDRLGPGSGPLGEPLADGLALVPATLAFNLGCDPLEMGELRIQRYLEGSIAPEDKGSCSLLPGPPFARELHIEIVSSPHYSTNGNYDGVLYRHFQIPRVVQEGDVLCVPTIGQVEILEGSPEKLPRWREMFFKVKKTVGEAPDGPASAYLADTTHTSLYMVGSTLSPVPWLPSEESTLWSSLSPPGLEALVSELCAVLKPRLQPGGALLTGTSSVLLRGPPGCGKTTVVAAACSHLGLHLLKVPCSSLCAESSGAVETKLQAIFSRARRCRPAVLLLTAVDLLGRDRDGLGEDARVMAVLRHLLLNEDPLNSCPPLMVVATTSRAQDLPADVQTAFPHELEVPALSEGQRLSILRALTAHLPLGQEVNLAQLARRCAGFVVGDLYALLTHSSRAACTRIKNSGLAGGLTEEDEGELCAAGFPLLAEDFGQALEQLQTAHSQAVGAPKIPSVSWHDVGGLQEVKKEILETIQLPLEHPELLSLGLRRSGLLLHGPPGTGKTLLAKAVATECSLTFLSVKGPELINMYVGQSEENVREVFARARAAAPCIIFFDELDSLAPSRGRSGDSGGVMDRVVSQLLAELDGLHSTQDVFVIGATNRPDLLDPALLRPGRFDKLVFVGANEDRASQLRVLSAITRKFKLEPSVSLVNVLDCCPPQLTGADLYSLCSDAMTAALKRRVHDLEEGLEPGSSALMLTMEDLLQAAARLQPSVSEQELLRYKRIQRKFAAC
For B1, the binding entry in experiment [2], in experiment [3] and in experiment [4] was “binds” in each case.
